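Uptake of anthrax lethal toxin into cultured cells, read by FRET (460/530 nm ratio) and reported from the 460 nm channel; the cell line is not named here.
Each compound was tested as a concentration series from about 0.0005 to 40 µM.
The number is the fitted AC50 of the 460 nm signal alone; lower values mean a more potent effect. A falling signal goes with compounds filed as inhibitors or cytotoxic, a rising one with activators or fluorescent compounds (inferred from the filed classes).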

Values are in µM.
Common to all entries: measured here: 460 nm channel.
Part of the compounds only, not a random draw; the main read-out is not listed here.
A potency from a partial, single-point or poor curve is only a rough figure.
The first word of each remark tells which way the curve ran; it can be opposite to the aim of the assay.

structure	AC50 (µM)	remark
O=C(CSc1nnc(Cc2ccccc2)o1)NCc1ccco1	0.01995	falling, full curve, poor fit
Cc1nc2ccccc2c2oc(C(=O)Nc3ccc4c(c3)OCCO4)cc12	0.7943	falling, full curve
CCC(C(=O)N1CCc2cc(OC)c(OC)cc2C1)c1ccccc1 (centres unmarked)	31.62	falling, partial curve
COc1ccccc1N(CCC#N)C(=O)CSc1nc(-c2ccccc2)cn1N	12.59	rising, single point
O=C(CC1N=C2c3ccccc3N=C(SCc3ccc(Cl)cc3)N2C1=O)NCc1ccco1 (centres unmarked)	25.12	rising, single point
Cc1nn2c3c(cnc2c1-c1ccccc1)C(=O)CC(c1ccco1)C3 (centres unmarked)	0.631	falling, single point
Cc1cc(C)n(-c2nc3ccccc3n3cnnc23)n1	0.003981	falling, full curve, poor fit
Cn1cccc1C(=O)N1CCC2(CCCN(c3cccc(-c4ccccc4)c3)C2)CC1	19.95	falling, partial curve, poor fit
COC(=O)c1ccccc1NC(=O)NCc1ccccn1	15.85	rising, single point
CC1=C(C(=O)Nc2ccccc2)C(c2ccc(C)o2)n2c(s/c(=C\c3ccco3)c2=O)=N1 (centres unmarked)	1.585	falling, single point
COC(=O)[C@@]1(Cc2ccc(F)cc2)[C@@H]2C(=CC(=O)[C@H]2CC(=O)C(=O)N(C)C)CN1C(=O)c1ccccc1	3.981	rising, single point
CCC(C)NC(=O)CSc1nnc(-c2ccncc2)n1-c1ccc(OC)cc1 (centres unmarked)	5.012	rising, single point
CCCCCCn1c(CN2CCN(Cc3ccccc3)CC2)nc2c1c(=O)n(C)c(=O)n2C	0.003981	rising, full curve, poor fit
O=C(NCc1ccccn1)NC12CC3CC(CC(C3)C1)C2	5.012	falling, single point
O=c1cc(-c2ccccc2)c2ccc(O)c(CN3CCCCC3)c2o1	3.162	rising, single point
N#Cc1c(N)c(C(=O)c2ccccc2)n2c1CCCC2	3.981	falling, full curve, poor fit
CCn1c(=N)c(C(=O)NCCCOC)cc2c(=O)n3cccc(C)c3nc21	10	rising, partial curve
Cc1ccnc(N2CCN(C(=O)CSc3nc4ccccc4nc3N3CCCCC3)CC2)c1	12.59	rising, single point
O=c1c(-c2ccc(Cl)cc2)coc2c(CN3CCOCC3)c(O)ccc12	12.59	falling, partial curve
CCC(=O)Nc1c(C#N)c2nc3ccccc3nc2n1-c1ccccc1C	10	rising, partial curve
COCCn1c(=O)c(CCc2ccccc2)nc2cnc(N(C)C)nc21	10	rising, partial curve
CCOc1ccc(Nc2cc(C)nc(-n3nc(C)cc3C)n2)cc1	15.85	falling, partial curve
COc1ccc(C(=O)Nc2cc(-c3nn4c(C)nnc4s3)ccc2C)cc1	15.85	falling, partial curve
CCCn1cnc2c(SCc3ccc(Cl)cc3)nc(N)nc21	0.1259	falling, full curve
O=C(CCc1ccccc1)Nc1cc(Cl)ccc1O	10	falling, partial curve
CCOC(=O)CC(=O)CSc1ccc2nnc(-c3cccc(F)c3)n2n1	5.012	rising, partial curve
COc1cccc(Nc2nnc(SCn3nnc4ccccc4c3=O)s2)c1	31.62	falling, single point
CCN1C(=O)N(C)C(N(O)C(=O)NC)C1(C)C (centres unmarked)	0.7943	falling, full curve
CCCN(CCC)CCCNC(=O)c1cc2c(=O)n(C)c3ccccc3c2n1C	3.162	falling, full curve
Cc1ccc(NCN2C(=O)c3ccccc3C2=O)c(C)c1	1	falling, partial curve
COc1ccccc1N1CCN(C(=O)CSc2nnc3n2C(C)(C)Cc2ccccc2-3)CC1	19.95	falling, partial curve
NC(=O)c1cc(-c2ccccc2)nc(N2CCCCCC2)n1	6.31	rising, partial curve
CCN(CC)C(=O)CSc1nc2cc3c(cc2c(=O)n1Cc1ccc2c(c1)OCO2)OCO3	5.012	rising, single point
COc1ccc([C@@H]2CNC(=O)C2)cc1OC1CCCC1	12.59	falling, single point
COc1ccccc1Cc1noc(COc2cccc(C)c2C)n1	0.631	falling, full curve, poor fit
Cc1onc(-c2c(Cl)cccc2Cl)c1C(=O)NCCN1CCOCC1	0.007943	falling, full curve, poor fit
COc1ccccc1C(=O)Nc1ccc2oc(-c3ccc(F)cc3)nc2c1	6.31	falling, partial curve
CCOC(=O)c1[nH]c(COC(=O)CCCOc2ccccc2)c(C(=O)OCC)c1C	15.85	rising, partial curve
COc1ccc(-n2c(=O)c(C)nc3cnc(N4CCOCC4)nc32)cc1	0.631	falling, partial curve
CC(=O)O[C@]1(C(C)=O)CC[C@@H]2[C@@H]3C=C(Cl)C4=CC(=O)[C@H]5C[C@@H]5[C@]4(C)[C@H]3CC[C@]21C	15.85	rising, partial curve
CCN1CCCC1CNC(=O)C1c2ccccc2C(=O)N(CCOC)C1c1ccc(F)cc1 (centres unmarked)	19.95	rising, single point

The last 5 entries again:

structure	AC50 (µM)	remark
COc1ccccc1C(=O)Nc1ccc2oc(-c3ccc(F)cc3)nc2c1	6.31	falling, partial curve
CCOC(=O)c1[nH]c(COC(=O)CCCOc2ccccc2)c(C(=O)OCC)c1C	15.85	rising, partial curve
COc1ccc(-n2c(=O)c(C)nc3cnc(N4CCOCC4)nc32)cc1	0.631	falling, partial curve
CC(=O)O[C@]1(C(C)=O)CC[C@@H]2[C@@H]3C=C(Cl)C4=CC(=O)[C@H]5C[C@@H]5[C@]4(C)[C@H]3CC[C@]21C	15.85	rising, partial curve
CCN1CCCC1CNC(=O)C1c2ccccc2C(=O)N(CCOC)C1c1ccc(F)cc1 (centres unmarked)	19.95	rising, single point

Data taken from PubChem BioAssay AID912, deposited by NCATS (2007).